According to the supplement of paper PMC12595434, “Development of retinoid nuclear receptor pathway antagonists through targeting aldehyde dehydrogenase 1A3” (iScience, 2025):
Some of the results follow. The data scatter; read single values as rough.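 Tm was set to 64 °C where no melting was found, and many curves are irregular.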

Sequences of proteins named here, by UniProt entry; tags and fusion partners are left off. A change or cut given only in a name is not applied to a line headed by its entry.
UniProt Q9BYK8: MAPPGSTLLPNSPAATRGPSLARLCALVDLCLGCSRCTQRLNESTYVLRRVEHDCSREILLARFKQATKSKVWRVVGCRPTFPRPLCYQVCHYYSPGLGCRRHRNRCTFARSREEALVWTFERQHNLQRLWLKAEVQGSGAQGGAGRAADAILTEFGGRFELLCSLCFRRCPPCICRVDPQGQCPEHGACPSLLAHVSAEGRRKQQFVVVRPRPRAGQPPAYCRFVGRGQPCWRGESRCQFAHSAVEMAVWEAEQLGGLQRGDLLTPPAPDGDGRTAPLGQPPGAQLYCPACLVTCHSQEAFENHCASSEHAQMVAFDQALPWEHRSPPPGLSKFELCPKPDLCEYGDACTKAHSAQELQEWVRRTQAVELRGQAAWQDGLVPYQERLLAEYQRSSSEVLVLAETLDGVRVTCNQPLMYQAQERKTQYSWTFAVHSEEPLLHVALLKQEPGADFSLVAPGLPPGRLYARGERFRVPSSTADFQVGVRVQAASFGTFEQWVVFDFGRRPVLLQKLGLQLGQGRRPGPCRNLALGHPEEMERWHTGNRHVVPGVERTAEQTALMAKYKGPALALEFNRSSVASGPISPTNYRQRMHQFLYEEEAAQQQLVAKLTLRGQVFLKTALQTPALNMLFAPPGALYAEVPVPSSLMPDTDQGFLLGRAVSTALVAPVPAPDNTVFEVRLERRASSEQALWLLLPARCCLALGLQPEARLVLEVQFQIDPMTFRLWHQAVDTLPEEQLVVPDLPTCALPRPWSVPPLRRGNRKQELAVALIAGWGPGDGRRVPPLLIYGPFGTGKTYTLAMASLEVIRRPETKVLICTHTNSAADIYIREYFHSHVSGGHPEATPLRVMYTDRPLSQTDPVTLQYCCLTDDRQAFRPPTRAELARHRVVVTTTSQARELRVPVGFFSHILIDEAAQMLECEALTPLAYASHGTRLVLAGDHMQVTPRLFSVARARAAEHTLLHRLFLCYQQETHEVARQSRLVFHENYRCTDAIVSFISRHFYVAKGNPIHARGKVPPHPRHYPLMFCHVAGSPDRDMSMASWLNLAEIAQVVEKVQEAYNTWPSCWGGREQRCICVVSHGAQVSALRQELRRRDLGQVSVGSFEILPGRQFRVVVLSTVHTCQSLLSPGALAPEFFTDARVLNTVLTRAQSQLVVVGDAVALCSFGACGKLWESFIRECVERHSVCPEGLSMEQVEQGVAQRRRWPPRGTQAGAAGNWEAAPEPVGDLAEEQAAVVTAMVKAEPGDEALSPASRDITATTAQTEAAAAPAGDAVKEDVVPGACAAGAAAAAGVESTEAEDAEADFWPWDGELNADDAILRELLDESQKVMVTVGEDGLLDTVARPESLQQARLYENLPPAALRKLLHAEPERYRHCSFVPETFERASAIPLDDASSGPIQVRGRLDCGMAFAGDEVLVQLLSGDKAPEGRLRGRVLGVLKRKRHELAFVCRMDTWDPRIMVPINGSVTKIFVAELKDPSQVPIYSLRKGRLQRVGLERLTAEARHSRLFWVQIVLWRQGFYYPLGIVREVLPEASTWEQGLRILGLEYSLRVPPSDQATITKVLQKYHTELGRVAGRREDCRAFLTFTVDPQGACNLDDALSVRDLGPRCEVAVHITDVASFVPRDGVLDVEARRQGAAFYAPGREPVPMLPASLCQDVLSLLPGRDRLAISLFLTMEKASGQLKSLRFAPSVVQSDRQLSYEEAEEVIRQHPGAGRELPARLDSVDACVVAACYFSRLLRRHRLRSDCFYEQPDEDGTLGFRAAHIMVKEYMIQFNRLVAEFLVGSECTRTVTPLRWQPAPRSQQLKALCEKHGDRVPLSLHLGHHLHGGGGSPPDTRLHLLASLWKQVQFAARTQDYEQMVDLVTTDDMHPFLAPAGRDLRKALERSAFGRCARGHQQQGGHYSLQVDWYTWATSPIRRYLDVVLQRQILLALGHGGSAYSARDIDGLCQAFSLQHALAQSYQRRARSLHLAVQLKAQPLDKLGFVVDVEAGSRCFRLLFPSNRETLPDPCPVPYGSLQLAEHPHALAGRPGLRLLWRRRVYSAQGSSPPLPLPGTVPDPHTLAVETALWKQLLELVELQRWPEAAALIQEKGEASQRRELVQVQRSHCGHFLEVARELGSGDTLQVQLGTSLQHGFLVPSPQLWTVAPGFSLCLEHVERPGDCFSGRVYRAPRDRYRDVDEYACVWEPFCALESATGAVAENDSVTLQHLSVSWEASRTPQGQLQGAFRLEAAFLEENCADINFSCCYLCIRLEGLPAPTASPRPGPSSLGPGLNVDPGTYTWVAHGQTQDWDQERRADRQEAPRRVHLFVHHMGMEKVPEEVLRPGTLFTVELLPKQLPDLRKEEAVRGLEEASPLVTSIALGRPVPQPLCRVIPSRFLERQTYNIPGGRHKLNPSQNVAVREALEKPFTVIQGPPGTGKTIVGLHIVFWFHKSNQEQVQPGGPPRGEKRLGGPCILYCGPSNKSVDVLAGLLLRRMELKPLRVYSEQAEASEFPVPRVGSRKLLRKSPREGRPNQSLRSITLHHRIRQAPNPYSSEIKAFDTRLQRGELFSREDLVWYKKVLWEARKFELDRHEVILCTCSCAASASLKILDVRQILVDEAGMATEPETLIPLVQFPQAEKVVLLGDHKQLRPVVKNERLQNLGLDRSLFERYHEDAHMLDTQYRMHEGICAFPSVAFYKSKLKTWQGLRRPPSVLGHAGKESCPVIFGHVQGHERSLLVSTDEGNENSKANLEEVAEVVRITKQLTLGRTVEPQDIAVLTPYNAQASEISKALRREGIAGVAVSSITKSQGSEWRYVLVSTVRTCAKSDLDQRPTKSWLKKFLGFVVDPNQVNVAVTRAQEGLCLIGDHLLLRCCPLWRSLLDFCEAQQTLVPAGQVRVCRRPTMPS
UniProt Q9H7E9: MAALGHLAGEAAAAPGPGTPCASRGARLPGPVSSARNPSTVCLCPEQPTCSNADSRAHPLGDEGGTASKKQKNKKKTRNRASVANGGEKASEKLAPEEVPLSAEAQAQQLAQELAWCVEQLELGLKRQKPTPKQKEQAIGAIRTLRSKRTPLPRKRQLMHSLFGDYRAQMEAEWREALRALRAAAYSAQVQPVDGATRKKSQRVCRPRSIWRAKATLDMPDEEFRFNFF
UniProt Q9H0R1: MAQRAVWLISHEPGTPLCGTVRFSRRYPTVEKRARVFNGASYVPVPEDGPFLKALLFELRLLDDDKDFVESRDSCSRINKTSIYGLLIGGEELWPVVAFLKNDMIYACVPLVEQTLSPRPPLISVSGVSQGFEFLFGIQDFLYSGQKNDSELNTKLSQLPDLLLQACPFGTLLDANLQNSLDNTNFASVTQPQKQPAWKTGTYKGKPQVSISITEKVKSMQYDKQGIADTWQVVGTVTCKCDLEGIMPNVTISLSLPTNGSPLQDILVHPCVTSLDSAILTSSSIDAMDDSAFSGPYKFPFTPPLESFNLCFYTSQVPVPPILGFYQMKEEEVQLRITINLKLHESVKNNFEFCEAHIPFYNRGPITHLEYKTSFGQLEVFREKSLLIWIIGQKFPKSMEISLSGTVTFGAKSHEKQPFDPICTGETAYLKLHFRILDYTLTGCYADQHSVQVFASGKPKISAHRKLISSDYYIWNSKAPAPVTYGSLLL
UniProt Q9BZL4: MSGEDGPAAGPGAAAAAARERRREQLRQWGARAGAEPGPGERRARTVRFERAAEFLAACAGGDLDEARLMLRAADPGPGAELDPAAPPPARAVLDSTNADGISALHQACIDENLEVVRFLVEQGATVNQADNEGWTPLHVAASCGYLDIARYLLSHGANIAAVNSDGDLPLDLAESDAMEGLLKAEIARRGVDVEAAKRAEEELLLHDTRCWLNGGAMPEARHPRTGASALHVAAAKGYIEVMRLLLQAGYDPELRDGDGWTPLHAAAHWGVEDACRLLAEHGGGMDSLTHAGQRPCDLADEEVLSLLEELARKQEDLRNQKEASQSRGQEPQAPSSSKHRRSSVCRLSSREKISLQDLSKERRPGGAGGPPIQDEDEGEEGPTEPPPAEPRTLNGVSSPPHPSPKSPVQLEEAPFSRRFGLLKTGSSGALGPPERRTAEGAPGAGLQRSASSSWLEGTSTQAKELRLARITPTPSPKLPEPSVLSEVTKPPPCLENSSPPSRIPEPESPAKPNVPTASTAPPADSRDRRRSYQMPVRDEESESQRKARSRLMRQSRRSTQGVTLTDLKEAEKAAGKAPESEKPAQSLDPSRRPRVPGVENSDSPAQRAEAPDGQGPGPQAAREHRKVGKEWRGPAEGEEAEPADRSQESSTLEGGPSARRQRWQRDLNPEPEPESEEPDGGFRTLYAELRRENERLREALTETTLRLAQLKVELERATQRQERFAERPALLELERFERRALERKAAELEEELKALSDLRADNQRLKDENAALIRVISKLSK
UniProt Q9H6S3: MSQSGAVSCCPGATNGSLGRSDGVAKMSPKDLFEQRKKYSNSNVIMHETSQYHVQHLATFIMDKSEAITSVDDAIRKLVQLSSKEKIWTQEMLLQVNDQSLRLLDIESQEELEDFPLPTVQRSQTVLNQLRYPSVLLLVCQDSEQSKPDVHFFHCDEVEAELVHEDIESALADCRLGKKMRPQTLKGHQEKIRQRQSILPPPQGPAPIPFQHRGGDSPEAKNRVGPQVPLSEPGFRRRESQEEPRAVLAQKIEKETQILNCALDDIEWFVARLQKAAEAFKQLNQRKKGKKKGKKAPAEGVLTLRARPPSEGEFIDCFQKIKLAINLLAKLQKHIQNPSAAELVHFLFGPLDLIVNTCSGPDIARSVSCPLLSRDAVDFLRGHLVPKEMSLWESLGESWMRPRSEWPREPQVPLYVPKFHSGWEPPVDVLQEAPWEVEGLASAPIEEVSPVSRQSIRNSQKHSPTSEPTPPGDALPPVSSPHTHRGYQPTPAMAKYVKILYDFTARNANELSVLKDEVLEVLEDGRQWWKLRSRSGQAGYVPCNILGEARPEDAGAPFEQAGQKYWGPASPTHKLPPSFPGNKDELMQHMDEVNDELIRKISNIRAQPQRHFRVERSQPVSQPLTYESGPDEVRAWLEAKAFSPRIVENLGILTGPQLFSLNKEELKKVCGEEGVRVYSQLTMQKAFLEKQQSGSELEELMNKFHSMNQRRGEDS
UniProt Q9BZV1: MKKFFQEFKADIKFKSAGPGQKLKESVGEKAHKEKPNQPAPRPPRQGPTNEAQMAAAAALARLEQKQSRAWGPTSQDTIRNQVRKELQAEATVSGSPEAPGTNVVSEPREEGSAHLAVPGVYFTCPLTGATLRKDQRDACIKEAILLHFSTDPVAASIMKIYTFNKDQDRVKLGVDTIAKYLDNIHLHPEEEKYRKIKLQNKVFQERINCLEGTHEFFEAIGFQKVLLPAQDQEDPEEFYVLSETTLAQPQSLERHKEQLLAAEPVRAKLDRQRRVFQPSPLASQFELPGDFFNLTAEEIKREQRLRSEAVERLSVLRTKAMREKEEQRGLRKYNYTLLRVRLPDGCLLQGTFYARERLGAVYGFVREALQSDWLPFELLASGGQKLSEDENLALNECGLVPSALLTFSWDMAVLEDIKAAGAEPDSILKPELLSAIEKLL
UniProt Q9BZQ8: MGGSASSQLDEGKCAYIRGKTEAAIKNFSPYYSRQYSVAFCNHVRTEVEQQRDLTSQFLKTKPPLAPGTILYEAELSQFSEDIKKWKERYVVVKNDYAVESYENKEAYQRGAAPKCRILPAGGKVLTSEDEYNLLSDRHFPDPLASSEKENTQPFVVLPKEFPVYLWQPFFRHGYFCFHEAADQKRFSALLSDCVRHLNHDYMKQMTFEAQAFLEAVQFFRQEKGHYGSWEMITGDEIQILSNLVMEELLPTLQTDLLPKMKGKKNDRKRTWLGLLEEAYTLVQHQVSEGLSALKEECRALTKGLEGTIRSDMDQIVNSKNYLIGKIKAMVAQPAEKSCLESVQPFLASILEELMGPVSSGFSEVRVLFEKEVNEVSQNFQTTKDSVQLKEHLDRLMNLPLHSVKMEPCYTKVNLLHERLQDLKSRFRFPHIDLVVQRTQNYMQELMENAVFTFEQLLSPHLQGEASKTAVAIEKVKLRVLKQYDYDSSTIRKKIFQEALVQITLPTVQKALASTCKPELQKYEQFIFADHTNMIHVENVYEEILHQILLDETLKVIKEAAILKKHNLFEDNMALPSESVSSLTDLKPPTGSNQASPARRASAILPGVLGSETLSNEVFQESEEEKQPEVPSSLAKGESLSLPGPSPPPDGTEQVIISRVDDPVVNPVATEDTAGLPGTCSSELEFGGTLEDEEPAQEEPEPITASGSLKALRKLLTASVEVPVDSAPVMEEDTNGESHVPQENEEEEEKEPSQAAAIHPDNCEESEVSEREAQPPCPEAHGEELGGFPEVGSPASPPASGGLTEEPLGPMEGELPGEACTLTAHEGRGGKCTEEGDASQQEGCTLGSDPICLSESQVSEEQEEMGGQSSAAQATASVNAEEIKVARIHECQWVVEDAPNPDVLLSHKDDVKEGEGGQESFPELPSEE

Compound: CCc1cnccc1C(=O)Nc1cc2c(cc1F)NC(=O)CC2
Test: melting temperature shift (DMSO Tm minus MBE1-treated Tm) in cellular thermal proteome profiling; higher = less thermal stabilization by MBE1 (negative = stabilized by MBE1)
Conditions: A375

| Target | melting temperature shift (MBE1 concentration: 100 nM) [°C] | melting temperature shift (MBE1 concentration: 1 uM) [°C] |
| --- | --- | --- |
| HELZ2 (UniProt Q9BYK8) | 0.861 | 2.48 |
| REEP4 (UniProt Q9H6H4) | -1.25 | -0.791 |
| ZHX3 (UniProt Q9H4I2) | -1.64 | -0.545 |
| UniProt Q9H361 | 0.0894 | 0.551 |
| SAP130 (UniProt Q9H0E3) | -0.91 | -0.311 |
| GOLPH3 (UniProt Q9H4A6) | -0.927 | 0.293 |
| YTHDF1 (UniProt Q9BYJ9) | 0.116 | 0.977 |
| RANBP3 (UniProt Q9H6Z4) | -0.445 | -0.488 |
| UniProt Q9H6L2 | -0.293 | 0.0122 |
| MTIF3 (UniProt Q9H2K0) | -0.208 | -0.0335 |
| MTG2 (UniProt Q9H4K7) | -0.653 | -0.519 |
| KCTD10 (UniProt Q9H3F6) | -2.03 | 0.758 |
| YTHDC2 (UniProt Q9H6S0) | -0.804 | -0.506 |
| KIF13A (UniProt Q9H1H9) | 1.21 | 0.8 |
| ARL6 (UniProt Q9H0F7) | -0.165 | 0.727 |
| DDX24 (UniProt Q9GZR7) | 0.348 | 0.708 |
| SRXN1 (UniProt Q9BYN0) | 0.977 | 0.941 |
| UniProt Q9H6U8 | -0.597 | 0.0469 |
| UniProt Q9H668 | -0.306 | -0.346 |
| C8ORF33 (UniProt Q9H7E9) | 3.54 | 1.05 |
| ANAPC1 (UniProt Q9H1A4) | 0.751 | 0.238 |
| WDR12 (UniProt Q9GZL7) | -1.19 | 0.255 |
| IRF2BPL (UniProt Q9H1B7) | -0.346 | -0.372 |

| Target | melting temperature shift (MBE1 concentration: 100 nM) [°C] | melting temperature shift (MBE1 concentration: 1 uM) [°C] |
| --- | --- | --- |
| RABEP2 (UniProt Q9H5N1) | -0.0423 | -0.226 |
| UniProt Q9GZR5 | -0.262 | -0.148 |
| C20ORF27 (UniProt Q9GZN8) | -0.664 | -0.677 |
| MFF (UniProt Q9GZY8) | 0.94 | 0.336 |
| MRPL9 (UniProt Q9BYD2) | -3.87 | -3.21 |
| WDR11 (UniProt Q9BZH6) | -0.771 | -0.381 |
| LDAH (UniProt Q9H6V9) | -0.385 | 0.354 |
| SH2D4A (UniProt Q9H788) | -0.988 | -0.0659 |
| UniProt Q9H0R1 | 1.11 | -1.84 |
| UniProt Q9GZM8 | 1.14 | 1.34 |
| UniProt Q9BZL4 | -0.884 | -0.828 |
| PTGES2 (UniProt Q9H7Z7) | -0.946 | 0.443 |
| UniProt Q9H204 | -1.09 | -1.5 |
| EPS8L2 (UniProt Q9H6S3) | -0.0268 | 2.66 |
| WNK3 (UniProt Q9BYP7) | -0.818 | -0.248 |
| NUF2 (UniProt Q9BZD4) | -0.275 | -0.0897 |
| TMEM245 (UniProt Q9H330) | 0.697 | 0.618 |
| UBXN6 (UniProt Q9BZV1) | -0.724 | -0.647 |
| METTL7A (UniProt Q9H8H3) | 0.301 | -1.44 |
| UniProt Q9H0K1 | -0.293 | 0.756 |
| FAM129A (UniProt Q9BZQ8) | -0.0916 | -0.69 |
| UniProt Q9H4B6 | -1.17 | -2.41 |
| PAIP1 (UniProt Q9H074) | -0.63 | -0.161 |

Look-ups from the list.
C20ORF27 (UniProt Q9GZN8) – melting temperature shift (MBE1 concentration: 1 uM) [°C]: -0.677
LDAH (UniProt Q9H6V9) – melting temperature shift (MBE1 concentration: 100 nM) [°C]: -0.385
